According to patent US20080199473A1 (CLEVELAND CLINIC FOUNDATION, published 2008):
Results are given in words; binding and its absence hold for the method and conditions named. In cells and extracts the contact can be indirect. Some results given as binding are weak or reduced against the parent protein; the word gives no strength.

Sequences of proteins named here, by UniProt entry; tags and fusion partners are left off. A change or cut given only in a name is not applied to a line headed by its entry. Residues count along the entry.
UniProt O43508: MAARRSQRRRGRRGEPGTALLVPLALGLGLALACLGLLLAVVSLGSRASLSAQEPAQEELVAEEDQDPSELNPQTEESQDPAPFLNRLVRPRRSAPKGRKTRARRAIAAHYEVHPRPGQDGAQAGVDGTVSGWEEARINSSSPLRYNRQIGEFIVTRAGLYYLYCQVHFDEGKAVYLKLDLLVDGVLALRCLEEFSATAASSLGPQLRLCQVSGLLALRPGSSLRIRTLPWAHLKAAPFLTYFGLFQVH
GST-TWEAK protein: residues 136-249 of O43508

Experiments:
[1] = molecular target: TWEAK (endogenous, in HVSMC protein extract) (UniProt O43508); assay: co-immunoprecipitation
GST-TWEAK protein [2] = molecular target: GST-TWEAK protein (UniProt O43508); assay: GST pull-down
[3] = molecular target: TWEAK (endogenous, in HVSMC protein extract) (UniProt O43508); assay: co-immunoprecipitation from HVSMC extract, Western blot with goat anti-TWEAK
GST-TWEAK protein [4] = molecular target: GST-TWEAK protein (UniProt O43508); assay: GST pull-down, 35S-labelled VG5Q
[5] = molecular target: TWEAK (endogenous, in HVSMC protein extract) (UniProt O43508); assay: co-immunoprecipitation, Western blot

- binding [1]: binds
- binding (GST-TWEAK protein [2]): binds
- binding [3]: binds
- binding (GST-TWEAK protein [4]): binds
- binding [5]: binds
B1: human VG5Q protein (protein)
chain: MASEAPSPPRSPPPPTSPEPELAQLRRKVEKLERELRSCKRQVREIEKLLHHTERLYQNAESNNQELRTQVEELSKILQRGRNEDNKKSDVEVQTENHAPWSISDYFYQTYYNDVSLPNKVTELSDQQDQAIETSILNSKDHLQVENDAYPGTDRTENVKYRQVDHFASNSQEPASALATEDTSLEGSSLAESLRAAAEAAVSQTGFSYDENTGLYFDHSTGFYYDSENQLYYDPSTGIYYYCDVESGRYQFHSRVDLQPYPTSSTKQSKDKKLKKKRKDPDSSATNEEKDLNSEDQKAFSVEHTSCNEEENFANMKKKAKIGIHHKNSPPKVTVPTSGNTIESPLHENISNSTSFKDEKIMETDSEPEEGEITDSQTEDSYDEAITSEGNVTAEDSEDEDEDKIWPPCIRVIVIRSPVLQIGSLFIITAVNPATIGREKDMEHTLRIPEVGVSKFHAEIYFDHDLQSYVLVDQGSQNGTIVNGKQILQPKTKCDPYVLEHGDEVKIGETVLSFHIHPGSDTCDGCEPGQVRAHLRLDKKDESFVGPTLSKEEKELERRKELKKIRVKYGLQNTEYEDEKTLKNPKYKDRAGKRREQVGSEGTFQRDDAPASVHSEITDSNKGRKMLEKMGWKKGEGLGKDGGGMKTPIQLQLRRTHAGLGTGKPSSFEDVHLLQNKNKKNWDKARERFTENFPETKPQKDDPGTMPWVKGTLE
modifications: 35S label in the GST pull-down (in-vitro-translated)
